# Patent publication EP1088233B9, “A BIOLUMINESCENCE RESONANCE ENERGY TRANSFER (BRET) SYSTEM AND ITS USE” (PerkinElmer BioSignal Inc., priority 1998, dated 1999)
# At least one structure is not confirmed: it was looked up by name or label, or the drawing left a doubt.
# Columns and labels:
# β2 receptor = target: T1, β2 receptor (Homo sapiens, UniProt P07550); format: cell-based; conditions: 68 minutes after addition of coelenterazine; forskolin 2 mM, epinepiarine 20nM
# T1 construct: expressed in transfected cells; host or cells: CHW cells stably expressing the receptor (CHW-β2), transiently transfected with the cAMP sensor
# adenylate cyclase = test: cAMP sensor (CBP:CREB) BRET assay, direct activation of adenylate cyclase by forskolin; format: cell-based
structure (smiles),measurement,setting,value
C=C[C@@]1(C)CC(=O)[C@]2(O)[C@@]3(C)[C@@H](O)CCC(C)(C)[C@@H]3[C@H](O)[C@H](OC(C)=O)[C@@]2(C)O1 [forskolin],ratio 550/470 nm higher than the median line (2.029),β2 receptor,hits
same,BRET ratio over time,"adenylate cyclase; forskolin 10 µM, CHO-K1 cells, compared to buffer alone",Ratios increased over time
same,BRET ratio over time,"adenylate cyclase; forskolin as control, CHW-β2 cells",the ratios increased
